Experimental data reported in patent publication US20260193623.
For at least one entry, the source does not settle the construct or the ends of the probe. Protein sequences can lack the tags named with them.

Legend:
Assay in all cases: activity assay
[1] = tested on: T1, MG153-12; settings: primer extension gel; higher error rate than MMLV; protein translated in vitro; protein details: N-terminal Strep; label: 5'-FAM primer; DNA:RNA hybrid
T1 sequence (limits assumed): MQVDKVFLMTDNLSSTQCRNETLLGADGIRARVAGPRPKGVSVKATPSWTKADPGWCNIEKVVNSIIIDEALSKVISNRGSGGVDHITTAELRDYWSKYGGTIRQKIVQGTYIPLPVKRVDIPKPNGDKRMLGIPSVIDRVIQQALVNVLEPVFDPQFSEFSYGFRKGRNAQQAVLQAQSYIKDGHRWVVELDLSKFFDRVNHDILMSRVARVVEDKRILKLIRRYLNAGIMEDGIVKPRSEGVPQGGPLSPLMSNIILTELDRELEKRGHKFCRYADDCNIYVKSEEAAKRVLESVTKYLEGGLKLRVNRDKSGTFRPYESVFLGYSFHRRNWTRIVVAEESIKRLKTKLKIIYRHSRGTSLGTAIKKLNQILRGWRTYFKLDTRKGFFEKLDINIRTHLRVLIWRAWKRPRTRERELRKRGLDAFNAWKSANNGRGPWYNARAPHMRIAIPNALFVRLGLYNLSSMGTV

[2] = tested on: T2, MG151-94; settings: primer extension gel; protein translated in vitro; protein details: Strep, RT-RNase H trim; label: 5'-FAM primer; DNA:RNA hybrid
T2 sequence: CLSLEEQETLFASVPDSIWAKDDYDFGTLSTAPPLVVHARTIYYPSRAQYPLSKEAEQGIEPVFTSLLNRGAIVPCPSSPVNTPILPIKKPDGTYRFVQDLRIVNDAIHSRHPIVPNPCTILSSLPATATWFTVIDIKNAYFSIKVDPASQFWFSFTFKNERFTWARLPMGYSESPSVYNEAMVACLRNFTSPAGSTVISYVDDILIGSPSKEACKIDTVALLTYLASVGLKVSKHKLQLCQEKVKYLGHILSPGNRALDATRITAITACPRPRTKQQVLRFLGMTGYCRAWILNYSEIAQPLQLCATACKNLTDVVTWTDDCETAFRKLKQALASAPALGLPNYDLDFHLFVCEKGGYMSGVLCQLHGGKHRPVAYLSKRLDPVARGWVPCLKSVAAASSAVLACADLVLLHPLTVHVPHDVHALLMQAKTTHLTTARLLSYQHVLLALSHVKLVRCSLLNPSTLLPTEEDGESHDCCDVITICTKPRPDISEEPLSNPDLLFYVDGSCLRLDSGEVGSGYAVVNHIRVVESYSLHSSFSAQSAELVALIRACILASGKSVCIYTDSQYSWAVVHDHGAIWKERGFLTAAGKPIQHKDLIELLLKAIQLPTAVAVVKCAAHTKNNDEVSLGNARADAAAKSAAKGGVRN

[3] = tested on: T3, MG153-36; settings: primer extension gel; 3 mM MgCl2, 37 C; protein translated in vitro; protein details: N-terminal Strep; label: 5'-FAM primer; DNA:RNA hybrid
T3 sequence (limits assumed): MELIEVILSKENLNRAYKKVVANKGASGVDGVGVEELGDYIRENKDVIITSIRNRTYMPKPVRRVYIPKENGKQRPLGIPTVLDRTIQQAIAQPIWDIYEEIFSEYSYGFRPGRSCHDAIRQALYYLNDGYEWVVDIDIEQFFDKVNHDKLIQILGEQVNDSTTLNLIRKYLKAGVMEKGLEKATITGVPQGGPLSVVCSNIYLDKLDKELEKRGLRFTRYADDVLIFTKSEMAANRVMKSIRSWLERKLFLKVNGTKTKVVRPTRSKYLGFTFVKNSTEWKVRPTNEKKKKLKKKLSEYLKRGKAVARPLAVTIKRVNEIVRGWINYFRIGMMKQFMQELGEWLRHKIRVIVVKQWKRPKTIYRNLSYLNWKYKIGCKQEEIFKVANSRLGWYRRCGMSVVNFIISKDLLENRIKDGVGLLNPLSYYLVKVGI

[4] = tested on: T4, MG165-1; settings: primer extension gel; protein translated in vitro; protein details: N-terminal Strep; label: 5'-FAM primer; DNA:RNA hybrid
T4 sequence (limits assumed): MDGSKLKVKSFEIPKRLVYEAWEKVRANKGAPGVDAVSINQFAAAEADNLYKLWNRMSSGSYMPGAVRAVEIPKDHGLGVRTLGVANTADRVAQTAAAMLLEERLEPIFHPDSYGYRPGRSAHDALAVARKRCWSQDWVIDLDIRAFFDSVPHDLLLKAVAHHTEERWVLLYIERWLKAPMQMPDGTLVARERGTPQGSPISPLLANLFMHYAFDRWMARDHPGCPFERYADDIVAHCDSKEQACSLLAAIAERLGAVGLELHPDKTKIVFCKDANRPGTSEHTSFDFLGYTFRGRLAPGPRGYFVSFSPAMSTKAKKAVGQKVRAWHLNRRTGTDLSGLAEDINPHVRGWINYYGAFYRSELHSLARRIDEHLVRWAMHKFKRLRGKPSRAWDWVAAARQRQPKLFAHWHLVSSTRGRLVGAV

[5] = tested on: T5, MG155-3; settings: primer extension on general RNA; protein translated in vitro; protein details: N-terminal Strep; label: 5'-FAM primer; DNA:RNA hybrid
T5 sequence: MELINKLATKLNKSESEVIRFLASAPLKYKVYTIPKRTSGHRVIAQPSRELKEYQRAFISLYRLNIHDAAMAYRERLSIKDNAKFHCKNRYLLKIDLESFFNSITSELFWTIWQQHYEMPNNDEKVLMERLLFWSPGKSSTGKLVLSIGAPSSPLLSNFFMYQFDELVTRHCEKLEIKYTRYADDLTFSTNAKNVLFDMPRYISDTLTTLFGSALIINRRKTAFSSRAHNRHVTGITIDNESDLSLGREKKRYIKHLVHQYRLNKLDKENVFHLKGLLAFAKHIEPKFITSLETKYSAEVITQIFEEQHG

[6] = tested on: T6, MG153-42; settings: primer extension gel; 3 mM MgCl2, 37 C; protein translated in vitro; protein details: N-terminal Strep; label: 5'-FAM primer; DNA:RNA hybrid
T6 sequence (limits assumed): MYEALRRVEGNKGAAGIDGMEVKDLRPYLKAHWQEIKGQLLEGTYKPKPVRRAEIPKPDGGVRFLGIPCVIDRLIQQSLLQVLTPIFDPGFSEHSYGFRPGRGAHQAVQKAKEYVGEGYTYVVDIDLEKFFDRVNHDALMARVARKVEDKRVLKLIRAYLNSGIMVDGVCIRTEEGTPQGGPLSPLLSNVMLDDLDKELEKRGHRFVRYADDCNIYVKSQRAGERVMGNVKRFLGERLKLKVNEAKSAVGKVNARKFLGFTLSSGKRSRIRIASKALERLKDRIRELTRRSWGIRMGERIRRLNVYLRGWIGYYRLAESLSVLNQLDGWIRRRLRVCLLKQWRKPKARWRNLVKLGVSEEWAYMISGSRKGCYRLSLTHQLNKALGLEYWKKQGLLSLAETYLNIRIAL

Measured: activity on this sequence

GGCAAACCGCCTCTCCCCGCGCGTTGGCCGATTCATTAATGCAGCTGGCACGACAGGTTTCCCGACTGGAAAGGAGACCCGGGCAGTGAGCGCAACGGGTCTCCAATTTAAGCCAGCCCCGACACCCGCCAACACCCGCTGACGCGCCCTGACGGGCTTGTCTGCTCCCGGCATCCGCTTACAGACAAGCTGTGACCGTCTC / GAGACGGTCACAGCTTGTCTG [202-nt RNA template annealed to DNA primer]
active: all assays above
